# Results: article PMC12198979
# Results are given in words; binding and its absence hold for the method and conditions named. In cells and extracts the contact can be indirect. A result given as binding can be weak or reduced; the word gives no strength. Where a sequence is shown, tags or fusion partners need not be part of it.
# Molecular target: T1, DEK-His-GFP (LAP-tag DEK fusion) (human) (UniProt P35659)
# T1 sequence: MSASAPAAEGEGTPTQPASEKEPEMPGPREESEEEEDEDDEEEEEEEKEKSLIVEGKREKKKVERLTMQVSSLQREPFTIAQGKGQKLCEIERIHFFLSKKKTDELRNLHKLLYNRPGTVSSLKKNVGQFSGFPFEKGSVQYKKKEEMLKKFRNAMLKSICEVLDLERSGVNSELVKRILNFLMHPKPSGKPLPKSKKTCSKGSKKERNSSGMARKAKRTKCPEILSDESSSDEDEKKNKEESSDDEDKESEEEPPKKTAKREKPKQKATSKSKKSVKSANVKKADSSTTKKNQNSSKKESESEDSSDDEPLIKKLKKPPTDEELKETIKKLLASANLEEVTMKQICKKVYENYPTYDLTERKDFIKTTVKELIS
# Assay: co-IP; GFP-trap (LAP-tag immunoprecipitation): nuclear extract of tetracycline-induced HEK293 cells on GFP-trap beads, 1 h at 4°C; wash buffer 10 mM Tris-HCl pH 7.5, 150 mM NaCl, 0.5 mM EDTA; eluted with 0.2 M glycine pH 2.5; immunoblot
substance,measurement,value
CK2 (human (endogenous in HEK293)) (enzyme),binding,binds
